Record: PubChem BioAssay AID504791 (Drosophila RNAi Screening Center, 2011)
The screen tested about 23,000 reagents; below is a random part of those that have a named target and a result. Of all reagents, 199 (0.86%) are marked active. 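Plate-scaled ratios behind the calls are not deposited; printed light signals are raw; many rows marked increased or decreased are still called inactive.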 Entries without a mark were called inactive. A plus sign joins genes that one reagent is predicted to hit. No sequences are given here. Not stated in the record: the direction of the score.

- Purpose: 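Genes whose knock-down strengthens or weakens small-RNA reporter silencing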 (primary screen)
- Cells: Drosophila S2-derived reporter cells
- Reagent: long dsRNA against Drosophila genes, about 150-250 ng dsRNA per well (siRNA assay); about 80-120 ng (miRNA assay)
- Timing: about 5 days (siRNA assay); about 4 days (miRNA assay)
- Challenge: copper sulfate induction of reporters: 25 µM (siRNA assay); 200 mM stated (miRNA assay), 1-2 days before reading
- Measured: 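Per-well ratio of Renilla over firefly light, expressed relative to that plate's average ratio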
- Units: stable assay Renilla, run 1 in luminescence; stable assay firefly, run 1 in luminescence
- Active means: 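a well was a first-pass pick when its plate-scaled ratio rose above 1.5 (siRNA assay) or 1.6 (miRNA assay), or dropped below 0.6; a gene counted only if two separate dsRNAs agreed on retest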

Mipp2 [DRSC18682]
- stable assay Renilla, run 1: 7475
- stable assay firefly, run 1: 4.41e5

Rx [DRSC03837]
- stable assay Renilla, run 1: 5868
- stable assay firefly, run 1: 3.64e5

Rx [DRSC04652]
- stable assay Renilla, run 1: 7282
- stable assay firefly, run 1: 5.02e5

CG13699 [DRSC10048]
- stable assay Renilla, run 1: 7418
- stable assay firefly, run 1: 3.98e5

CG3184 [DRSC18289]
- stable assay Renilla, run 1: 7539
- stable assay firefly, run 1: 3.81e5

spartin [DRSC12187]
- stable assay Renilla, run 1: 6950
- stable assay firefly, run 1: 4.71e5

dbr [DRSC00274]
- stable assay Renilla, run 1: 10753
- stable assay firefly, run 1: 4.51e5

alien + CG17906 [DRSC02641]
- stable assay Renilla, run 1: 6878
- stable assay firefly, run 1: 3.43e5

CG33695 + cana [DRSC01163]
- stable assay Renilla, run 1: 5082
- stable assay firefly, run 1: 5.43e5

CG33695 + cana [DRSC03503]
- stable assay Renilla, run 1: 6674
- stable assay firefly, run 1: 3.57e5

CG31664 [DRSC22084]
- stable assay Renilla, run 1: 9754
- stable assay firefly, run 1: 5.25e5

sd [DRSC20370]
- stable assay Renilla, run 1: 4127
- stable assay firefly, run 1: 4.28e5

sd [DRSC21712]
- stable assay Renilla, run 1: 4555
- stable assay firefly, run 1: 4.78e5

Mvd [DRSC20096]
- stable assay Renilla, run 1: 6823
- stable assay firefly, run 1: 3.01e5

CG14805 [DRSC18554]
- stable assay Renilla, run 1: 6552
- stable assay firefly, run 1: 3.73e5

Ccz1 [DRSC08439]
- stable assay Renilla, run 1: 8117
- stable assay firefly, run 1: 4.06e5

wls [DRSC10605]
- stable assay Renilla, run 1: 9457
- stable assay firefly, run 1: 5.87e5

CG31161 [DRSC16144]
- miRNA reporter change: reporter ratio raised past the hit cutoff
- stable assay Renilla, run 1: 8585
- stable assay firefly, run 1: 3.50e5

CG18233 [DRSC10308]
- stable assay Renilla, run 1: 6770
- stable assay firefly, run 1: 3.67e5

Mhcl [DRSC13130]
- stable assay Renilla, run 1: 4063
- stable assay firefly, run 1: 4.42e5

Mhcl [DRSC14216]
- stable assay Renilla, run 1: 7810
- stable assay firefly, run 1: 4.05e5

Mhcl [DRSC16753]
- stable assay Renilla, run 1: 8630
- stable assay firefly, run 1: 3.52e5

CG17097 [DRSC02569]
- stable assay Renilla, run 1: 6667
- stable assay firefly, run 1: 4.09e5

CG5569 [DRSC04514]
- stable assay Renilla, run 1: 6042
- stable assay firefly, run 1: 3.55e5

CG12547 [DRSC07759]
- stable assay Renilla, run 1: 5563
- stable assay firefly, run 1: 2.94e5

VhaM9.7-b [DRSC11841]
- stable assay Renilla, run 1: 7319
- stable assay firefly, run 1: 4.04e5

Phyhd1 [DRSC14911]
- stable assay Renilla, run 1: 6984
- stable assay firefly, run 1: 4.96e5

RpL8 [DRSC08532]
- stable assay Renilla, run 1: 6499
- stable assay firefly, run 1: 2.58e5

RpL8 [DRSC08695]
- stable assay Renilla, run 1: 6370
- stable assay firefly, run 1: 2.59e5

Cdk5alpha [DRSC03290]
- stable assay Renilla, run 1: 6444
- stable assay firefly, run 1: 3.97e5

Cdk5alpha [DRSC23301]
- stable assay Renilla, run 1: 7318
- stable assay firefly, run 1: 3.89e5

mino [DRSC14132]
- stable assay Renilla, run 1: 6887
- stable assay firefly, run 1: 3.50e5

vir-1 [DRSC02501]
- stable assay Renilla, run 1: 7075
- stable assay firefly, run 1: 3.82e5

vir-1 [DRSC02863]
- stable assay Renilla, run 1: 9025
- stable assay firefly, run 1: 4.84e5

CG32022 [DRSC09678]
- stable assay Renilla, run 1: 6070
- stable assay firefly, run 1: 3.47e5

Entries listed so far whose gene name begins with R or r (4):
Rx [DRSC03837]
- stable assay Renilla, run 1: 5868
- stable assay firefly, run 1: 3.64e5

Rx [DRSC04652]
- stable assay Renilla, run 1: 7282
- stable assay firefly, run 1: 5.02e5

RpL8 [DRSC08532]
- stable assay Renilla, run 1: 6499
- stable assay firefly, run 1: 2.58e5

RpL8 [DRSC08695]
- stable assay Renilla, run 1: 6370
- stable assay firefly, run 1: 2.59e5
